Measured values taken from the supplement of paper PMC10849652.
The list shows a part of the results.

The chains behind the UniProt entries cited, without tags or fusion partners. Where a name states a change or a piece, a line headed by the entry shows the natural chain unless it says otherwise.
UniProt Q96K37: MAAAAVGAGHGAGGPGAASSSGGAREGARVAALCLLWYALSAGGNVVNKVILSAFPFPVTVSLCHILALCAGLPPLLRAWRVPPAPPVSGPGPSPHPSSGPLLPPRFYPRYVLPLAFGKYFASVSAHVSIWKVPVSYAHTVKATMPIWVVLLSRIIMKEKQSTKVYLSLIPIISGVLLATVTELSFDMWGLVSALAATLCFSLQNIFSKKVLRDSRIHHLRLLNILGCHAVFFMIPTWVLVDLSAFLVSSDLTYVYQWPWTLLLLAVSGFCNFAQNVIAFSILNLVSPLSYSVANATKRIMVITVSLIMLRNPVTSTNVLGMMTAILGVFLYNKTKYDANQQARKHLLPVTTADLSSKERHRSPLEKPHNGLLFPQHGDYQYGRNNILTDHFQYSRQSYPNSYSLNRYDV
UniProt Q9Y2D2: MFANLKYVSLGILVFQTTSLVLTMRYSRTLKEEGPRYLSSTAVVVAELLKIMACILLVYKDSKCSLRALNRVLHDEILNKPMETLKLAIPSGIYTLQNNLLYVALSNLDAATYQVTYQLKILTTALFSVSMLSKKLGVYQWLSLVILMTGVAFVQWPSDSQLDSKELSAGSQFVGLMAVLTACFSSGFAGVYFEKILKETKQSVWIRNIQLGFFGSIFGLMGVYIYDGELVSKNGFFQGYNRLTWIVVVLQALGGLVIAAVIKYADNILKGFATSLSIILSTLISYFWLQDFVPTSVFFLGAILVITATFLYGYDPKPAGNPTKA
UniProt Q8WUX1, whole entry, looked up: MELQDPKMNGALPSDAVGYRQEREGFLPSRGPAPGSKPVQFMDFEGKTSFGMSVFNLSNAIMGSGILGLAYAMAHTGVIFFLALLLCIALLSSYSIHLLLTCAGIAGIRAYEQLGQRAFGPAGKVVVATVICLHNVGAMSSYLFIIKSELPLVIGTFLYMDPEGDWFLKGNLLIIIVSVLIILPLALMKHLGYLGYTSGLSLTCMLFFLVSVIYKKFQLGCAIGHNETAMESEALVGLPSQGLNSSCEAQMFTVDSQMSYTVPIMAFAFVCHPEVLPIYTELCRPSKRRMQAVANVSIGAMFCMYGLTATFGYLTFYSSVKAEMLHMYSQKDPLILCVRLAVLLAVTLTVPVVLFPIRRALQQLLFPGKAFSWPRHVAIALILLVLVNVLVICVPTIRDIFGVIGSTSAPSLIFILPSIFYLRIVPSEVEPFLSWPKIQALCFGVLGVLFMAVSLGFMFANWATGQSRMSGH
UniProt O14975, whole entry, looked up: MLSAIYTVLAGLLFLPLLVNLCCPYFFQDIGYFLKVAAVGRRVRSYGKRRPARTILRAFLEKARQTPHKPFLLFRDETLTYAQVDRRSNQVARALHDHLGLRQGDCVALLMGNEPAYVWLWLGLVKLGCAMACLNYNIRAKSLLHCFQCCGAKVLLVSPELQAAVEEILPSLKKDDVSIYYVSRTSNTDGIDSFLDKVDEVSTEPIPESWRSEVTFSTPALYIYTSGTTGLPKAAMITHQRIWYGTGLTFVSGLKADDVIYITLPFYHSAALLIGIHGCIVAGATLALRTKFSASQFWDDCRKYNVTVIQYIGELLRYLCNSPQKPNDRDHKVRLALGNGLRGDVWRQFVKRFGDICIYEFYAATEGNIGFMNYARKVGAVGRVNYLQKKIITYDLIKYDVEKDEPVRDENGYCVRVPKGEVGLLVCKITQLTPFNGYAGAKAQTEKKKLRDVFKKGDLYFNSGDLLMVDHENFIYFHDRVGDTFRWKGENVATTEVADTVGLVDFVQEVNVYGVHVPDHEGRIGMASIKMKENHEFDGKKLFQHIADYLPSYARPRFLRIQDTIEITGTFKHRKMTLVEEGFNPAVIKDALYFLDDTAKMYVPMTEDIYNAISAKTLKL
UniProt Q9NVC3: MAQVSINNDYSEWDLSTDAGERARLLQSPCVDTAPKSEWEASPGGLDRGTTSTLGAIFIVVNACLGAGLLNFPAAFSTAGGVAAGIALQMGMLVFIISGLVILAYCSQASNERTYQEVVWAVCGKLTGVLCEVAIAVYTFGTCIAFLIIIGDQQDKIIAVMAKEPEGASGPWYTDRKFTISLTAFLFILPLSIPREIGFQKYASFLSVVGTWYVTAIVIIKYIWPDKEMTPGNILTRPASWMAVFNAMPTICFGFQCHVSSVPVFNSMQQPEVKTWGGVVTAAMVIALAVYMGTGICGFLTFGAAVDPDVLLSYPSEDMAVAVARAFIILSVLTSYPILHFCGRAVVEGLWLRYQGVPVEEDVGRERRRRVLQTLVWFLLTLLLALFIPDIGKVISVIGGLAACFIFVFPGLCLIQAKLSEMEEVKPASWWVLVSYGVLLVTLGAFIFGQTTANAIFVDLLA
UniProt P41440: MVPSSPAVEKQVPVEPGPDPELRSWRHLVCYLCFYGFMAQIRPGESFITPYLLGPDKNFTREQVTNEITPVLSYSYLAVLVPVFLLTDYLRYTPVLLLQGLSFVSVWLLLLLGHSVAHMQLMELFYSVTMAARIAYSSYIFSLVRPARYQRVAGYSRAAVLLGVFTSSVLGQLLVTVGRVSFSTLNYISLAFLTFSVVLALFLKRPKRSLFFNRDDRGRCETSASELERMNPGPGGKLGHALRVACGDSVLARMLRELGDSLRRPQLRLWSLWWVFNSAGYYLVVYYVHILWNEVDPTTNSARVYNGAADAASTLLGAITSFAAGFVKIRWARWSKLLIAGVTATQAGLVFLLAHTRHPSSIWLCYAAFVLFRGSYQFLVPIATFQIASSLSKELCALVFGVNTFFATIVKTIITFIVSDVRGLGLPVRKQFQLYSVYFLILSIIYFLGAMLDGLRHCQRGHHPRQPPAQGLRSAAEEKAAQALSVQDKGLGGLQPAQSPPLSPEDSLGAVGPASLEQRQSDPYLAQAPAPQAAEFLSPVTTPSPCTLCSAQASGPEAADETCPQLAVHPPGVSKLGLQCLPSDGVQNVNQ
UniProt Q9H2H9: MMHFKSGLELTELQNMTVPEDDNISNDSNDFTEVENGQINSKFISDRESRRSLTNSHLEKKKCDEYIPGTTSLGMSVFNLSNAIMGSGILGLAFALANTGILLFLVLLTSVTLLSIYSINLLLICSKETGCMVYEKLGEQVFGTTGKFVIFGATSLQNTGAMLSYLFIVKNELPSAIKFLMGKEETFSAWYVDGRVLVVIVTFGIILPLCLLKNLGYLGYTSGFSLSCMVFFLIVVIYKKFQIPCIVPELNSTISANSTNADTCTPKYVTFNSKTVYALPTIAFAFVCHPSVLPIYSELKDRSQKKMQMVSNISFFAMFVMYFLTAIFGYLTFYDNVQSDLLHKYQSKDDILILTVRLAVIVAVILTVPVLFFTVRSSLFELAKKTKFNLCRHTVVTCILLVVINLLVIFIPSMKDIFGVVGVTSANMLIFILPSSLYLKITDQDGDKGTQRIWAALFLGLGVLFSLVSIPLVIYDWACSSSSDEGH
UniProt Q9Y6M5: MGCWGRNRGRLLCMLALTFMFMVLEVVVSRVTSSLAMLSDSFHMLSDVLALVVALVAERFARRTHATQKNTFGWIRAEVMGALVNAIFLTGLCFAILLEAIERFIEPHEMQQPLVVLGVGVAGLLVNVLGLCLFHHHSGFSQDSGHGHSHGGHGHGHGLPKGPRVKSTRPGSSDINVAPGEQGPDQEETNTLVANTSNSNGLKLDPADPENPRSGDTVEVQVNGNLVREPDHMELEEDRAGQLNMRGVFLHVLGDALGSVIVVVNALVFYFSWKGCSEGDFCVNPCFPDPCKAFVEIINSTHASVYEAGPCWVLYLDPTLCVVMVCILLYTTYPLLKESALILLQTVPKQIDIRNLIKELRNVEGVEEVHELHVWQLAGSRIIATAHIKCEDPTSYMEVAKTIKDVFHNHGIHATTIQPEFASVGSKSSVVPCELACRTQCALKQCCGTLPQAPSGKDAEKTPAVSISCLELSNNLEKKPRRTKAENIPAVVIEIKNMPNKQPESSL
UniProt Q86VD7: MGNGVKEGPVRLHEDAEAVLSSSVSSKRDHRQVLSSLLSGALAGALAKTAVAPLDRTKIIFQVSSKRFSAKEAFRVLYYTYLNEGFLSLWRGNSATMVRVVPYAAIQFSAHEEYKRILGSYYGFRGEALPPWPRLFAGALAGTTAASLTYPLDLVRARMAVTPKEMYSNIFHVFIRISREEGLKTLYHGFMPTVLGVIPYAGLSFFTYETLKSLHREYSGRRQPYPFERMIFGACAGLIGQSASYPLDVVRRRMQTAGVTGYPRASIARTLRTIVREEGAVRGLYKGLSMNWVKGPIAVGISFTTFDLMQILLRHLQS
UniProt Q9BSK2: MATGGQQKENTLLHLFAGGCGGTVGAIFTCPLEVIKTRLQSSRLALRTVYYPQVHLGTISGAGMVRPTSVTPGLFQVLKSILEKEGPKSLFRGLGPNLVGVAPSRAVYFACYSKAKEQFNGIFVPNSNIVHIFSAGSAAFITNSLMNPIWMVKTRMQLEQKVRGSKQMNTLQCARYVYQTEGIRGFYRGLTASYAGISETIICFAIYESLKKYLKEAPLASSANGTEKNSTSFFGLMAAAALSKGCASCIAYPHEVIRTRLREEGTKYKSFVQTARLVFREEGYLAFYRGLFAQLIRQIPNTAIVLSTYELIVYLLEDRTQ
UniProt P31641: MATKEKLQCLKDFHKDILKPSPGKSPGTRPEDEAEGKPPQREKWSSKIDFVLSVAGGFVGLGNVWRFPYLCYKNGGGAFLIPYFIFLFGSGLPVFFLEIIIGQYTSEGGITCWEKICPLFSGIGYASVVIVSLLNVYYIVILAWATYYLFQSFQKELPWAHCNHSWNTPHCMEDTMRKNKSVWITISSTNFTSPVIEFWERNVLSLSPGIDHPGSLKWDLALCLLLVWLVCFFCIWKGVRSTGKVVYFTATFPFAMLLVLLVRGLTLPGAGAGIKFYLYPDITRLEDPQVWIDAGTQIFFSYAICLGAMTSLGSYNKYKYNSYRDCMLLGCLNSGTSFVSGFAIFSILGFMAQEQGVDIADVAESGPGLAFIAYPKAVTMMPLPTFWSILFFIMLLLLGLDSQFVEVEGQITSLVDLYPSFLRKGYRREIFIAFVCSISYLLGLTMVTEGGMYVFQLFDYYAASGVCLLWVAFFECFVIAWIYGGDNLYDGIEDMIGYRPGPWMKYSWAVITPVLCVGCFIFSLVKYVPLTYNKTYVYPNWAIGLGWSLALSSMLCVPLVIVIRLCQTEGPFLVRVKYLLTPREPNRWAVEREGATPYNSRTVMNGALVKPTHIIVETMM
UniProt O43808: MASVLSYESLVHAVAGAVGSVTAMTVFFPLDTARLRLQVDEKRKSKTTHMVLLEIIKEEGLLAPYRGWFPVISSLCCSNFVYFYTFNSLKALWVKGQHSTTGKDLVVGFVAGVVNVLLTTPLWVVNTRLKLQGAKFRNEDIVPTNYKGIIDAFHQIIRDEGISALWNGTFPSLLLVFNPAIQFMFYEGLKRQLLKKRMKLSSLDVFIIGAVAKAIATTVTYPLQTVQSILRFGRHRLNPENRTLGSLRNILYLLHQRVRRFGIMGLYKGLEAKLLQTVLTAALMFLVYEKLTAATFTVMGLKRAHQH
UniProt Q6NXT4: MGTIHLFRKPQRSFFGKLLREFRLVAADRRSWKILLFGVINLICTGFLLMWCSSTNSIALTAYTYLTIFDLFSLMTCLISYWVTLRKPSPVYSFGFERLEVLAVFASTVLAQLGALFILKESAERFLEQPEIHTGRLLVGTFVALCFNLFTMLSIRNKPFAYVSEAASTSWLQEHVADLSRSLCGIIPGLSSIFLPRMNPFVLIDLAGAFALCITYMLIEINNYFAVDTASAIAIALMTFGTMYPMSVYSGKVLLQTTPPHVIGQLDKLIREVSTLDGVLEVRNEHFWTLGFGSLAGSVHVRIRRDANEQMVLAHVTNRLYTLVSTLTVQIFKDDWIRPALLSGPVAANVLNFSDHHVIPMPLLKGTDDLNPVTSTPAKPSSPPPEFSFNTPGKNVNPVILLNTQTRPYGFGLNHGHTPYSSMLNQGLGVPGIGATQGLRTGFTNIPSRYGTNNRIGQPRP
UniProt Q8TB61: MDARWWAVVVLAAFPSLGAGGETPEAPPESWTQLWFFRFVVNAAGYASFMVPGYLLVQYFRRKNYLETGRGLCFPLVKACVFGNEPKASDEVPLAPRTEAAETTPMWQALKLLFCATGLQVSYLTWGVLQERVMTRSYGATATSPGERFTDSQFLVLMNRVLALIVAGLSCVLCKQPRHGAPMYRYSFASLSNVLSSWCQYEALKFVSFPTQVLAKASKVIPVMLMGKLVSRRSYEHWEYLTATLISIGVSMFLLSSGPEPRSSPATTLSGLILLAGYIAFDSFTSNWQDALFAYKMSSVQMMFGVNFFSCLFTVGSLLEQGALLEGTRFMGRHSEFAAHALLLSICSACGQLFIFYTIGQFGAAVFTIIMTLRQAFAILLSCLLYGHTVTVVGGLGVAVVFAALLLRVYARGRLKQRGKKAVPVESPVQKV

Columns and labels:
Test in all cases: log2 fold change, soluble protein after heating vs DMSO (PISA); higher = thermal stabilisation; K562 cells, 10 uM, 30 min; active = over 0.2 and 3.5 SD of the protein, either way, in both replicates (recomputed)
erlotinib = compound: C#Cc1cccc(Nc2ncnc3cc(OCCOC)c(OCCOC)cc23)c1 [erlotinib]
In short: (§1)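 K562 cells at 2×10^6 cells/mL were treated for 30 min with 10 μM compound, and aliquots were heated for 3 min over 48°C-58°C before pooling. Extraction used PBS with 0.5% NP-40 at 4°C, and soluble protein was the supernatant after 21,000xg for 90 min, measured by TMTpro 16plex LC-MS/MS with channel sums equalised. Thermal stability values, relative to control samples and from duplicates, are log2 fold changes.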

[1] = compound: C/C(=N\NC(=O)C1=CC(=CC=C1)S(=O)(=O)N2CCOCC2)/C3=C(C=CC(=C3)Cl)O
In short: as §1

[2] = compound: C1=CC(=C(C=C1Cl)C2=NC3=NC=CN=C3C(=N2)NC4=CC=NC=C4)F
In short: as §1

[3] = compound: C1=CC(=CC=C1C2=NC3=C(N2)C=C(C=C3)C(=O)N)OC4=CC=C(C=C4)Cl
In short: as §1

[4] = compound: C1=CC2=C(C=CC(=C2)/C=C\3/C(=O)NC(=NCC4=CC=CS4)S3)N=C1
In short: as §1

[5] = compound: C1=CC2=NC=CN=C2C=C1/C=C/3\C(=O)NC(=O)S3
In short: as §1

[6] = compound: C1=CC=C(C=C1)C2=NC(=C(N2)C3=CC=NC=C3)C4=CC(=C(C=C4)Cl)O
In short: as §1

[7] = compound: C1=CC=C2C(=C1)C3=NNC4=CC=CC(=C43)C2=O
In short: as §1

[8] = compound: C1CCN(C1)C(=O)NC2=CC=CC(=C2)NC3=NC=C(C(=N3)NCCC4=CN=CN4)Br
In short: as §1

[9] = compound: C1CN(CCC1(CC2=CC=C(C=C2)Cl)N)C3=NC=NC4=C3C=CN4
In short: as §1

Measured: log2 fold change

SLC35C2 isoform 3 (UniProt Q9NQQ7)
inactive: erlotinib 0.002 | [1] 0.012 | [2] -0.043 | [3] -0.167 | [4] 0.113 | [5] 0.116 | [6] -0.01 | [7] 0.002

SLC7A5 (UniProt Q01650)
inactive: erlotinib 0.057 | [1] -0.033 | [2] 0.012 | [3] 0.01 | [4] -0.016 | [5] 0.01 | [6] -0.066 | [7] -0.008 | [8] -0.054 | [9] 0.187

SLC35E1 (UniProt Q96K37)
inactive: erlotinib -0.077 | [1] -0.035 | [2] 0.03 | [3] -0.008 | [4] 0.011 | [5] 0.062 | [6] 0.033 | [7] -0.099 | [8] -0.032 | [9] -0.021

SLC43A1 (UniProt O75387)
inactive: erlotinib -0.065 | [1] 0.024 | [2] -0.073 | [3] 0.042 | [4] 0.053 | [5] -0.014 | [6] -0.008 | [7] -0.089 | [8] -0.017 | [9] 0.05

SLC29A3 (UniProt Q9BZD2)
inactive: erlotinib 0.155 | [1] 0.024 | [2] 0.028 | [3] 0.043 | [4] 0.042 | [5] 0.098 | [6] 0.064 | [7] 0 | [8] 0.074 | [9] 0.052

SLC5A6 (UniProt Q9Y289)
inactive: erlotinib 0.012 | [1] 0.103 | [2] -0.008 | [3] 0.04 | [4] 0.007 | [5] 0.056 | [6] 0.059 | [7] -0.012 | [8] -0.041 | [9] 0.093

SLC35A3 isoform 2 (UniProt Q9Y2D2)
inactive: erlotinib 0.002 | [1] -0.059 | [2] 0.045 | [3] -0.031 | [4] 0.181 | [5] 0.084 | [6] 0.196 | [7] -0.039

SLC25A13 isoform 2 (UniProt Q9UJS0)
inactive: erlotinib 0.023 | [1] 0.002 | [2] 0.019 | [3] 0.001 | [4] -0.024 | [5] -0.001 | [6] 0.015 | [7] 0.003 | [8] 0.016 | [9] 0.04

SLC30A5 (UniProt Q8TAD4)
inactive: erlotinib -0.054 | [1] 0.009 | [2] 0.033 | [3] -0.02 | [4] 0.069 | [5] 0.106 | [6] -0.088 | [7] -0.022 | [8] -0.005 | [9] 0.033

SLC38A5 (UniProt Q8WUX1)
inactive: erlotinib -0.006 | [1] -0.017 | [2] 0.087 | [3] -0.002 | [4] 0.018 | [5] 0.05 | [6] 0.036 | [7] -0.065 | [8] -0.033 | [9] 0.11

SLC27A2 (UniProt O14975)
inactive: erlotinib 0 | [1] 0.057 | [2] 0.054 | [3] 0.032 | [4] 0.101 | [5] 0.005 | [6] 0.108 | [7] 0.018 | [8] -0.001 | [9] 0.035

SLC38A7 (UniProt Q9NVC3)
active: [6] 0.441
inactive: erlotinib 0.009 | [1] -0.003 | [2] 0.071 | [3] 0.058 | [4] 0.024 | [5] 0.088 | [7] 0.006 | [8] 0.011 | [9] 0.097

SLC35A1 (UniProt P78382)
inactive: erlotinib 0.014 | [1] -0.126 | [2] 0.05 | [3] -0.008 | [4] 0.082 | [5] -0.017 | [6] -0.043 | [7] -0.061 | [8] -0.052 | [9] 0.077

SLC39A14 (UniProt Q15043)
inactive: erlotinib 0.019 | [1] -0.047 | [2] 0.013 | [3] 0.029 | [4] 0.034 | [5] 0.068 | [6] -0.041 | [7] -0.069 | [8] 0.004 | [9] 0.051

SLC19A1 (UniProt P41440)
inactive: erlotinib -0.023 | [1] 0.029 | [2] 0.159 | [3] 0.022 | [4] -0.006 | [5] 0.103 | [6] 0.118 | [7] -0.008 | [8] -0.009 | [9] 0.08

SLC26A6 (UniProt Q9BXS9)
inactive: erlotinib 0.043 | [1] 0.015 | [2] -0.008 | [3] 0.034 | [4] 0.011 | [5] -0.083 | [6] -0.162 | [7] -0.063 | [8] -0.098 | [9] 0.092

SLC5A3 (UniProt P53794)
inactive: erlotinib -0.025 | [1] -0.012 | [2] 0.052 | [3] 0.017 | [4] -0.036 | [5] 0.032 | [6] 0.023 | [7] -0.155 | [8] -0.034 | [9] 0.074

SLC38A1 (UniProt Q9H2H9)
inactive: erlotinib 0.014 | [1] -0.04 | [2] 0.017 | [3] -0.012 | [4] -0.023 | [5] 0.066 | [6] 0.054 | [7] -0.104 | [8] 0.008 | [9] 0.092

Pulled one by one from the entries so far, 2 records:
SLC39A14 (UniProt Q15043)
inactive: erlotinib 0.019 | [1] -0.047 | [2] 0.013 | [3] 0.029 | [4] 0.034 | [5] 0.068 | [6] -0.041 | [7] -0.069 | [8] 0.004 | [9] 0.051

SLC19A1 (UniProt P41440)
inactive: erlotinib -0.023 | [1] 0.029 | [2] 0.159 | [3] 0.022 | [4] -0.006 | [5] 0.103 | [6] 0.118 | [7] -0.008 | [8] -0.009 | [9] 0.08

Carrying on:

SLC1A4 (UniProt P43007)
inactive: erlotinib 0.017 | [1] 0.022 | [2] 0.099 | [3] 0.017 | [4] -0.034 | [5] 0.034 | [6] 0.111 | [7] -0.049 | [8] 0 | [9] 0.101

SLC25A15 (UniProt Q9Y619)
inactive: erlotinib -0.022 | [1] 0.009 | [2] 0.037 | [3] 0.024 | [4] 0.039 | [5] 0.044 | [6] -0.006 | [7] -0.006 | [8] 0.045 | [9] 0.126

SLC30A1 (UniProt Q9Y6M5)
inactive: erlotinib 0.005 | [1] -0.036 | [2] 0.073 | [3] 0.01 | [4] -0.059 | [5] -0.011 | [6] 0.066 | [7] -0.071 | [8] -0.054 | [9] 0.101

SLC25A42 (UniProt Q86VD7)
inactive: erlotinib 0.08 | [1] 0.01 | [2] 0.089 | [3] 0.01 | [4] -0.032 | [5] -0.026 | [6] 0.079 | [7] -0.137 | [8] -0.086 | [9] 0.066

SLC25A33 (UniProt Q9BSK2)
inactive: erlotinib -0.02 | [1] -0.043 | [2] 0.106 | [3] 0.011 | [4] -0.017 | [5] 0.046 | [6] 0.009 | [7] -0.013 | [8] -0.032 | [9] 0.008

SLC6A6 (UniProt P31641)
inactive: erlotinib 0.001 | [1] 0.013 | [2] 0.123 | [3] -0.005 | [4] 0.003 | [5] 0.055 | [6] 0.007 | [7] -0.054 | [8] 0.087 | [9] 0.083

SLC25A17 (UniProt O43808)
inactive: erlotinib -0.001 | [1] 0.031 | [2] 0.065 | [3] 0.027 | [4] -0.041 | [5] 0.072 | [6] 0.057 | [7] 0.02 | [8] 0.008 | [9] 0.138

SLC25A51 (UniProt Q9H1U9)
inactive: erlotinib 0.001 | [1] 0.024 | [2] -0.01 | [3] 0.03 | [4] 0.018 | [5] 0.032 | [6] -0.042 | [7] -0.034 | [8] 0.053 | [9] -0.003

SLC30A6 isoform 2 (UniProt Q6NXT4)
inactive: erlotinib 0.011 | [1] 0.001 | [2] -0.001 | [3] 0.033 | [4] -0.027 | [5] 0.002 | [6] -0.02 | [7] -0.043 | [8] 0.03 | [9] 0.029

SLC35B2 (UniProt Q8TB61)
inactive: erlotinib 0.033 | [1] 0.013 | [2] 0.105 | [3] -0.007 | [4] 0.026 | [5] 0.028 | [6] 0.043 | [7] -0.054 | [8] 0.043 | [9] 0.024

SLC1A5 (UniProt Q15758)
inactive: erlotinib -0.001 | [1] 0.003 | [2] 0.043 | [3] 0.002 | [4] -0.051 | [5] 0.006 | [6] 0.075 | [7] -0.046 | [8] -0.052 | [9] 0.089

SLC10A4 (UniProt Q96EP9)
inactive: erlotinib 0.042 | [1] -0.282 | [2] -0.05 | [3] -0.062 | [4] 0.091 | [5] 0.03 | [6] -0.365 | [7] -0.228 | [8] 0.102 | [9] -0.176
